The record followed here is PMC6739357.

Sequences of proteins named here, by UniProt entry; tags and fusion partners are left off. Residues count along the entry.
UniProt Q704E8, residues 23-752: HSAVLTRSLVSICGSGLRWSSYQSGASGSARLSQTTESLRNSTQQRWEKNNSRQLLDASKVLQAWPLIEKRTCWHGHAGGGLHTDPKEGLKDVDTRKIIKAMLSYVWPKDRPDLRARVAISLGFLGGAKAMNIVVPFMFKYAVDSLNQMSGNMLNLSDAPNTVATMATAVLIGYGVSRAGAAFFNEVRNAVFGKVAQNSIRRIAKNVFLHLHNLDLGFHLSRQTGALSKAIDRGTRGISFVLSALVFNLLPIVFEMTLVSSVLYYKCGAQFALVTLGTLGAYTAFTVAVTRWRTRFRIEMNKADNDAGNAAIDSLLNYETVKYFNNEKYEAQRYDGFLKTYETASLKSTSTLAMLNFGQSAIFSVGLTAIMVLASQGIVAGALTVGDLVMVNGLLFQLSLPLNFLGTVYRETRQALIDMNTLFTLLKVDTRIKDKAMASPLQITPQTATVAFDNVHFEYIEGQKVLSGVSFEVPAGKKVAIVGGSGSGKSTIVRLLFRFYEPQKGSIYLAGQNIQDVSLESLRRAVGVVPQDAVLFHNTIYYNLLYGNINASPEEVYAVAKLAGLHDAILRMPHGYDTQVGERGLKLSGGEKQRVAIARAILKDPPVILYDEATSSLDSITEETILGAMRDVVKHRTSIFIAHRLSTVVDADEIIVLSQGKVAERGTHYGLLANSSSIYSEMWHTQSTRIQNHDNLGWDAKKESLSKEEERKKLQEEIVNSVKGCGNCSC
UniProt P15999, residues 44-553: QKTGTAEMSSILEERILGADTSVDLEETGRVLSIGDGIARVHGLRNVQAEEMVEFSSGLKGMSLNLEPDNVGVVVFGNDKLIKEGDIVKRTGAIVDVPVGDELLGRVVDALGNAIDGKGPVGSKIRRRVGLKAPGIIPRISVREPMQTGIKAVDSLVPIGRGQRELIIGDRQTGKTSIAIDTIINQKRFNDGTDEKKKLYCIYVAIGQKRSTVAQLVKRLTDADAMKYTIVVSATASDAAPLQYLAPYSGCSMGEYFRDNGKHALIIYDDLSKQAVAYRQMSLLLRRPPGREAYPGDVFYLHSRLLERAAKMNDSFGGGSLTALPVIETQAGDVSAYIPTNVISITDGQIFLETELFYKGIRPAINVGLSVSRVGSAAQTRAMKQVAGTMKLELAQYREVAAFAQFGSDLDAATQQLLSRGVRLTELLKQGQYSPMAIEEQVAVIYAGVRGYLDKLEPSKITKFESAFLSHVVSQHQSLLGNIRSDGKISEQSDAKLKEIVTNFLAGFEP

No constants are given. Whether binding was seen depends on the method and setting. Binding seen in cells or lysates may run through a third protein. Some results given as binding are weak or reduced against the parent protein; the word gives no strength.

This experiment deals with ABCB7 (mitochondrial ATP-binding cassette transporter ABCB7) (rat (endogenous in H9C2)) (UniProt Q704E8). Briefly: co-IP; endogenous proteins; H9C2 cell lysate (~1 mg protein) in IP buffer (20 mM Tris-HCl, 1 mM EDTA, 150 mM NaCl, 0.5% NP-40); immunoprecipitated with ABCB7 or COXIV antibody (2-3 ug) and protein A/G agarose beads at 4 °C overnight; Western blot. Background: Immunoblotting shows a protein as a band on a membrane.

As for “ATP5a (mitochondrial complex V) (from UniProt P15999 44-553)”, the binding entry is “binds”.
